# Source: publication doi:10.1101/733030
# Amino acid sequences for entries named in this document (tags omitted).
# UniProt Q9I741, whole entry: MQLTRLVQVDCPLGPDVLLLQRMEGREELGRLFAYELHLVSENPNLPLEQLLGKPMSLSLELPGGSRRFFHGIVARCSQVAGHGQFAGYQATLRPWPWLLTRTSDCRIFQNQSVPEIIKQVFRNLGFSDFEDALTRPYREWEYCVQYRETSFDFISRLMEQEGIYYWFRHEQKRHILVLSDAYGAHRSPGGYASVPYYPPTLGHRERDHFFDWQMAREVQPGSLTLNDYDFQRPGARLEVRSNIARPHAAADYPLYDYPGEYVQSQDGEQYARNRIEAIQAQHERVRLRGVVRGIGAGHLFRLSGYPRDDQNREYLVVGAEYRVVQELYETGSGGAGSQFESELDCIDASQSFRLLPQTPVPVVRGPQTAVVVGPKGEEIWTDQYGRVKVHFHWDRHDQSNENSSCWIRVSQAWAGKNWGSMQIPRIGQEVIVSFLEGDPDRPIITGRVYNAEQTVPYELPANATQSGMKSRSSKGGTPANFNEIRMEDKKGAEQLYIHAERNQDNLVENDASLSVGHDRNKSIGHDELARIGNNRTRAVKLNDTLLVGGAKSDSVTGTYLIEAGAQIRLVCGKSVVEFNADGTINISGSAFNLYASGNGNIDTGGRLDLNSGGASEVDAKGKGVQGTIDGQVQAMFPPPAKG
# Read-outs that look alike come from different tables or passages of the source. These are yes or no findings as the source states them, for the method shown. For some assays here: Binding calls can cover weak binding; strength is not graded here. For some assays here: Tags and fused reporters may be left off the sequences shown.
# T1: VgrG1b, bacterial two-hybrid fusion (P. aeruginosa) (UniProt Q9I737)
# T1 sequence: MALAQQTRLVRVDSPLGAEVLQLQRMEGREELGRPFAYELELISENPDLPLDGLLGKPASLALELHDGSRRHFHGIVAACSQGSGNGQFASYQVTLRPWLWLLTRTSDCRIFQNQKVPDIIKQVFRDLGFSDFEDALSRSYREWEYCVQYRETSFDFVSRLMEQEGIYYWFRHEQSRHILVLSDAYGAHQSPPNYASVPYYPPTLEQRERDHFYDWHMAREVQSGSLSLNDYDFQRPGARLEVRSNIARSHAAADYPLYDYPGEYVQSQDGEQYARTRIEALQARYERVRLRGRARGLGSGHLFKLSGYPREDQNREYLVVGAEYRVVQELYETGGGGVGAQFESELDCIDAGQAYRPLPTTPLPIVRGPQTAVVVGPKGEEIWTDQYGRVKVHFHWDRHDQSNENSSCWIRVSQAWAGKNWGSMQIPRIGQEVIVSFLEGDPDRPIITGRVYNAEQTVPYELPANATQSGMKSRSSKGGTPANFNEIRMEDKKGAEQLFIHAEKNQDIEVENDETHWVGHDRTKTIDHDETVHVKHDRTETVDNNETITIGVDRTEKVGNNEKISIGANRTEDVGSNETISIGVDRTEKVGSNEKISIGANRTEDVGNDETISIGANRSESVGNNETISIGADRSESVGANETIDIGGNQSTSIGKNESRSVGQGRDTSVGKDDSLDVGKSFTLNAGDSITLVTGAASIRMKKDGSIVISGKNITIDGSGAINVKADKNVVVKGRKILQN
# How the values were obtained:
# [1] = molecular target: Tse8 (type six exported 8), purified untagged (P. aeruginosa) (UniProt Q9HWL8); experiment: far-Western, overlay or dot blot
# [2] = molecular target: VgrG1a, bacterial two-hybrid fusion (P. aeruginosa) (UniProt Q9I741); experiment: two-hybrid
# [3] = molecular target: T1, VgrG1b, bacterial two-hybrid fusion (P. aeruginosa); experiment: two-hybrid
# Tsi8-His (P. aeruginosa) = Tsi8-His (P. aeruginosa) (UniProt Q9HWL7); experiment: pull-down
# [4] = molecular target: Tse8 (type six exported 8), purified untagged (P. aeruginosa) (UniProt Q9HWL8); experiment: far-Western, overlay or dot blot; remark: listed apart in the source
molecule,measurement,setting,value
GatA-V5 (from UniProt Q9HVT8 1-484),binding,[1],no binding
His-GatB (from UniProt Q9HVT7),binding,[1],binds
"Tse8, bacterial two-hybrid fusion (from UniProt Q9HWL8)",binding,[2],binds
same,binding,[3],no binding
Tse8-HA-Strep (from UniProt Q9HWL8),binding,Tsi8-His (P. aeruginosa),binds
VgrG1a-V5 (from UniProt Q9I741 1-643),binding,[1],binds
"GatC-HA (protein, UniProt Q9HVT9 1-96) MALERSDVEKIAHLARLGLSEADLPRTTETLNNILGLIDQMQAVDTSGVEPLAHPLEATQRLRPDAVTETDHRDAYQTIAPAVEEGLYLVPKVIES",binding,[4],binds
"VgrG1b-V5 (protein, UniProt Q9I737 1-741) MALAQQTRLVRVDSPLGAEVLQLQRMEGREELGRPFAYELELISENPDLPLDGLLGKPASLALELHDGSRRHFHGIVAACSQGSGNGQFASYQVTLRPWLWLLTRTSDCRIFQNQKVPDIIKQVFRDLGFSDFEDALSRSYREWEYCVQYRETSFDFVSRLMEQEGIYYWFRHEQSRHILVLSDAYGAHQSPPNYASVPYYPPTLEQRERDHFYDWHMAREVQSGSLSLNDYDFQRPGARLEVRSNIARSHAAADYPLYDYPGEYVQSQDGEQYARTRIEALQARYERVRLRGRARGLGSGHLFKLSGYPREDQNREYLVVGAEYRVVQELYETGGGGVGAQFESELDCIDAGQAYRPLPTTPLPIVRGPQTAVVVGPKGEEIWTDQYGRVKVHFHWDRHDQSNENSSCWIRVSQAWAGKNWGSMQIPRIGQEVIVSFLEGDPDRPIITGRVYNAEQTVPYELPANATQSGMKSRSSKGGTPANFNEIRMEDKKGAEQLFIHAEKNQDIEVENDETHWVGHDRTKTIDHDETVHVKHDRTETVDNNETITIGVDRTEKVGNNEKISIGANRTEDVGSNETISIGVDRTEKVGSNEKISIGANRTEDVGNDETISIGANRSESVGNNETISIGADRSESVGANETIDIGGNQSTSIGKNESRSVGQGRDTSVGKDDSLDVGKSFTLNAGDSITLVTGAASIRMKKDGSIVISGKNITIDGSGAINVKADKNVVVKGRKILQN",binding,[4],no binding
